{"source": "PubChem BioAssay AID1224826 | NIAID | 2016", "screen": "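Regulators of Tlr4 signalling leading to Tnf-alpha expression in macrophages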 (primary screen)", "system": "RAW264.7 G9 macrophages from mouse bearing reporters for p65 (GFP) and the Tnf promoter (mCherry)", "reagents": "siRNA pool against mouse genes, 100 nM", "time to read-out": "16 h of LPS stimulation, after 2 days of siRNA transfection", "conditions": "bacterial lipopolysaccharide (Salmonella minnesota R595), 10 ng/ml", "measurement": "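Imaged Tnf reporter mCherry in nuclei, minus background, normalised per plate to the median and expressed as robust z-scores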", "direction": "Tnf reporter robust z-score: higher = stronger Tnf promoter reporter signal after LPS", "active means": "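Called active when robust z-score is at most -1.3, matching the median of the Tlr4 knock-down control, or over 3; control wells and wells with under 50 cells never active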", "calls": "active = Tnf reporter clearly lowered or raised; inactive = no clear change in Tnf reporter", "note": "Shown is one part, drawn at random, of about 17,000 reagents tested. About 1,110 of all reagents (6.6%) were called active. 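Active means lowered or raised reporter signal; replicate intensities are raw and not normalised per plate.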 Not all columns of the deposit are shown."}
{"Target gene":"Lpin3","Tnf reporter robust z-score":-0.39,"fewer than 50 cells in well":"enough cells in well","activity call":"inactive"}
{"Target gene":"Xab2","Tnf reporter robust z-score":-0.49,"fewer than 50 cells in well":"enough cells in well","activity call":"inactive"}
{"Target gene":"Klrc2","Tnf reporter robust z-score":0.08,"fewer than 50 cells in well":"enough cells in well","activity call":"inactive"}
{"Target gene":"Or6c215","Tnf reporter robust z-score":0.32,"fewer than 50 cells in well":"enough cells in well","activity call":"inactive"}
{"Target gene":"Nsun6","fewer than 50 cells in well":"fewer than 50 cells per well; well left out of calls","activity call":"inactive"}
{"Target gene":"Ca11","Tnf reporter robust z-score":-1.6,"fewer than 50 cells in well":"enough cells in well","activity call":"active"}

2 entries from above in another layout:
Target gene,Tnf reporter robust z-score,fewer than 50 cells in well,activity call
Or6c215,0.32,enough cells in well,inactive
Nsun6,,fewer than 50 cells per well; well left out of calls,inactive

Further records follow:
{"Target gene":"Tmem72","fewer than 50 cells in well":"fewer than 50 cells per well; well left out of calls","activity call":"inactive"}
{"Target gene":"Arl6","Tnf reporter robust z-score":-0.89,"fewer than 50 cells in well":"enough cells in well","activity call":"inactive"}
{"Target gene":"Tpst2","fewer than 50 cells in well":"fewer than 50 cells per well; well left out of calls","activity call":"inactive"}
{"Target gene":"Ctnna3","Tnf reporter robust z-score":1.48,"fewer than 50 cells in well":"enough cells in well","activity call":"inactive"}
{"Target gene":"Or6c74","Tnf reporter robust z-score":-0.24,"fewer than 50 cells in well":"enough cells in well","activity call":"inactive"}
{"Target gene":"Garnl3","Tnf reporter robust z-score":-0.24,"fewer than 50 cells in well":"enough cells in well","activity call":"inactive"}
{"Target gene":"Klra17","Tnf reporter robust z-score":-0.51,"fewer than 50 cells in well":"enough cells in well","activity call":"inactive"}
{"Target gene":"Klhl17","Tnf reporter robust z-score":0.98,"fewer than 50 cells in well":"enough cells in well","activity call":"inactive"}
